Results taken from patent US20070203225A1, “METHOD OF INCREASING ENDOGENOUS ADIPONECTIN PRODUCTION AND LEPTIN PRODUCTION” (priority 2001, published 2007).
Several values for one entry are separate records, joined by “and”; a condition that tells them apart may be missing. Equal values may be shown once. Entries after “also recorded” stand apart in the source; their conditions may differ. At least one compound was matched to its structure with a doubt left. Some entries share one result that the patent states for a list of compounds.

How the values were obtained:
isolated rat adipocytes [1] = assay: Glucose utilization (uptake) by isolated cultured rat adipocytes; assay type: cell-based
Description: (§1) Cell isolation/preparation: Adipocytes are prepared from epididymal fat pads from male Sprague-Dawley rats weighing 300-600 g. Epididymal fat depots are resected from halothane anesthetized rats under aseptic conditions and adipocytes are isolated by collagenase digestion by the Rodbell method (Rodbell M. Metabolism of isolated fat cells. I. Effects of hormones on glucose metabolism and lipolysis. J Biol Chem. 1964; 239: 375-380), with minor modifications as previously described (Mueller W M, Gregoire F M, Stanhope K L, Mobbs C V, Mizuno T M, Warden C H, Stem J S, Havel P J. Evidence that glucose metabolism regulates leptin secretion from isolated adipocytes. Endocrinology 139: 551-558, 1998; Mueller W M, Stanhope K L, Gregoire F, Evans J L, Havel P J. Effects of metformin and vanadium on leptin secretion from cultured rat adipocytes. Obesity Res. 8: 530-539, 2000; Medina E A, Stanhope K L, Mizuno T M, Mobbs C V, Gregoire F, Hubbard N E, Erickson K L, Havel P J. Effects of tumor necrosis factor alpha on leptin secretion and gene expression: relationship to changes of glucose metabolism in isolated rat adipocytes. Int J Obes Relat Metab Disord. 23: 896-903, 1999.). The isolated adipocytes are then incubated for 30 minutes at 37 C before being plated and cultured on Matrigel-coated plates.
Adipocyte Culture: Adipocytes are maintained in culture anchored to a basement membrane matrix (Matrigel, Becton Dickinson, Franklin Lakes, N.J.) or collagen from Cohesion Technologies, (Palo Alto, Calif.). Although all in vitro systems have inherent advantages and disadvantages, advantages of this system compared with cultures containing free-floating adipocytes are that the matrix simulates their normal basement membrane attachment and that the cells are maintained in close proximity to each other, allowing direct cell to cell contact. Together the cell contact and basement membrane attachment help to maintain differentiation, since adipocytes have a strong tendency to dedifferentiate in long-term (>24 h) culture. […]

isolated rat adipocytes [2] = assay: Leptin secretion/production by isolated cultured rat adipocytes (RIA); assay type: cell-based
Description: as §1, with “plates. […]” for “plates.”

cultured rat adipocytes = assay: Adiponectin secretion by isolated cultured rat adipocytes over 96 h; assay type: cell-based; conditions: PDH kinase inhibitors DTNB and DCA
Description: Several studies have reported that thiazolidenediones (TZDs), agonists of PPARγ, increase adiponectin expression and circulating levels in animals (Maeda, 2001; Yamauchi, 2001a; Ye, 2003). TZD (10 μM Troglitazone) stimulated of adiponectin secretion from cultured rat adipocytes from 3 different depots (n=6). Mesenteric fat produced the largest amount of adiponectin over 96 hours in culture. (FIG. 5A). Adiponectin secretion from both the control- and TZD-treated adipocytes was well correlated with the glucose utilization (control, r=0.79; p<0.001); (TZD-treated, r=0.84, p=<0.0001, FIG. 5B) showing that, similar to leptin production, glucose metabolism also is involved in the regulation of adiponectin production by adipocytes.
Insulin increased adiponectin production from 3 different fat depots, however as in the experiments with troglitazone, the mesenteric depot produced the most adiponectin (FIG. 6B). Like leptin, both basal and insulin-stimulated adiponectin secretion was highly correlated to glucose utilization (r=0.91, p<0.0001) (FIG. 6C), and inversely related to the proportion of glucose metabolized to lactate (r=−0.81, p<0.0001) (FIG. 6D).
Also paralleling the regulation of leptin, adiponectin secretion by isolated cultured adipocytes was increased during 96 h culture by inhibitors of PDH-K. DTNB (100 μM) increased adiponectin secretion by 40% (p<0.03, n=6, FIG. 7A). […]

isolated rat adipocytes [3] = assay: Lactate production and proportion of glucose anaerobically metabolized to lactate in isolated cultured rat adipocytes; assay type: cell-based
Description: as §1
Adipocyte Culture: Adipocytes are maintained in culture anchored to a basement membrane matrix (Matrigel, Becton Dickinson, Franklin Lakes, N.J.) or collagen from Cohesion Technologies, (Palo Alto, Calif.). Although all in vitro systems have inherent advantages and disadvantages, advantages of this system compared with cultures containing free-floating adipocytes are that the matrix simulates their normal basement membrane attachment and that the cells are maintained in close proximity to each other, allowing direct cell to cell contact. Together the cell contact and basement membrane attachment help to maintain differentiation, since adipocytes have a strong tendency to dedifferentiate in long-term (>24 h) culture. In addition, the matrix and the small amount of serum in the media both contain growth factors, which are also likely to help in maintaining cell differentiation. Furthermore, the adipocytes in this system are not exposed to toxic levels of oxygen at the interface of the media and the incubator atmosphere, as opposed to free-floating adipocytes which aggregate at the surface of the media. An advantage of the system over those containing minced adipose tissue is that all of the cells in the culture are equally exposed to the nutrients and the oxygen dissolved in the media. Thus, although clearly different from the in vivo situation, this system provides a more physiological environment than most systems for maintaining adipocytes in long-term culture. […]

isolated rat adipocytes [4] = assay: Incorporation of glucose carbon into triglyceride in cultured adipocytes; assay type: cell-based; conditions: DTNB 100 μM, NEM 0.1 μM, DCA 2 mM
Description: Incorporation of Glucose Carbon into Triglyceride: To measure glucose incorporation into triglyceride, cultures are exposed to media containing 0.01 uCi/ml of ^14C-glucose. After 96 hr, media and extracellular lipid is removed from the well and methanol added. Then scrape the collagen-cell matrix from the well and transfer into a 50 ml glass tube. Rinse the well and scrape again in methanol to assure complete transfer of cells. Total triglycerides will be extracted using the Folch method (Folch, 1957). An aliquot of the lipid extract will be placed into vials containing scintillation fluid then radioactivity will be measured.
The first measurement is used to calculate the amount of glucose incorporated into triglycerides. Another aliquot of the lipid extract is placed into pre-weighed aluminum pans to determine the total amount of triglyceride per well. The remaining lipid is saponified and acidified to separate the glycerol and fatty acids. An aliquot of the lipid extract is placed into vials containing scintillation fluid and counted. […] By subtraction, the amount that was incorporated into triglyceride though glycerol is also determined. Glucose incorporation into triglyceride and into the fatty acid portion of the triglyceride are calculated by multiplying disintegration per min by total ug of glucose/well over the total DPM/well.

isolated rat adipocytes [5] = assay: Glucose oxidation: incorporation of 14C-glucose into CO2 by isolated rat adipocytes; assay type: cell-based
Description: Substrate Oxidation: Oxidation is measured using a modification of the method of Rodbell (Rodbell, 1964) and a modification of the cell culture system described by Bottcher and Furst (Bottcher, 1996). Briefly, adipocytes are isolated, counted and sized as previously described. Adipocytes are plated as described except they are placed in a sterile 20 ml scintillation vial instead of a well. Two ml of treatment media containing [U-^14C]-substrate (0.3 uCi/ml; glucose, fatty acids, malate, fumarate, pyruvate) is added to the vials. The vials are filled with 95% O2-5% CO2 gas and capped with rubber stoppers fitted with a hanging center well. Each well contains a 2×8 cm strip of Whatman No. 1 paper. Vials are maintained at 37° C. for 48 hr. After 48 hr, a sample of media is removed from each vial using a 4 inch, 23 gauge needle. Using another syringe and 23 gauge needle, 200 ul of sodium benzethonium is placed onto the paper strip and hanging well to capture CO2. Concentrated sulfuric acid is added to the vial in order to lyse cells and liberate all CO2 from the collagen matrix. After 24 hours, the hanging well and paper are transferred to another vial containing scintillation fluid and counted. The data are expressed as % DPM recovered as CO2 of the total DPM remaining in the media at 48 hours and as micromoles of substrate oxidized over time.

[6] = test system: isolated, cultured adipocytes; assay: Fatty acid oxidation: incorporation of 14C-labeled oleate into CO2 by cultured adipocytes; assay type: cell-based, rat; conditions: DNP, low/moderate concentration
[7] = DTNB 100 μM, NEM 0.1 μM, DCA 2 mM
[8] = DNP, low/moderate concentration

O=C(O)C(Cl)Cl [DCA, Dichloroacetate]
effect on total / insulin-mediated glucose utilization (in words) (isolated rat adipocytes [1]; [7]): not and did not increase | effect on leptin production/secretion (in words) (isolated rat adipocytes [2]; PDH kinase inhibitors DTNB, NEM, DCA, cultured adipocytes): increase and 2.0 mM was the most potent | effect on adiponectin secretion (in words) (cultured rat adipocytes): increase | effect on concentration of lactate present at the start of the incubations (in words) (isolated rat adipocytes [3]; DCA): decreases | effect on glucose not converted to lactate or incorporated into TG (OTHER; glucose flux into oxidation), by subtraction (in words) (isolated rat adipocytes [3]; [7]): increased | effect on proportion of glucose anaerobically metabolized to lactate (in words) (isolated rat adipocytes [3]; [7]): markedly lowered | effect on lactate production (in words) (isolated rat adipocytes [3]; DTNB 100 μM, NEM 0.1 μM, DCA 0.1 to 5.0 mM): markedly lowered | effect on proportion of glucose incorporated into TG (in words) (isolated rat adipocytes [4]): did not increase | effect on absolute and proportional glucose oxidation, labeled glucose into CO2 (in words) (isolated rat adipocytes [5]; DTNB (50 μM in FIG. 20) and DCA (2 mM), percent of control): increase

O=C(O)c1cc(SSc2ccc([N+](=O)[O-])c(C(=O)O)c2)ccc1[N+](=O)[O-] [DTNB, 5,5′-Dithiobis(2-nitrobenzoate)]
increase of adipocyte glucose utilization (isolated rat adipocytes [1]; NEM 0.1 μM, DTNB 100 μM, percent of control): 30-80%

O=[N+]([O-])c1ccc(O)c([N+](=O)[O-])c1 [DNP, dinitrophenol]
effect on glucose utilization (in words) (isolated rat adipocytes [1]; [8]): increased; also recorded: markedly increases | effect on leptin secretion (in words) (isolated rat adipocytes [2]; [8]): modestly, but significantly; also recorded: stimulates; also recorded: modestly increased | effect on fatty acid oxidation (in words) [6]: markedly increases | effect on glucose oxidation (in words) (isolated rat adipocytes [5]; [8]): markedly increases; also recorded: modestly increased
